Earlier results as cited in patent US20100120747A1, “COMBINATION OF A CHOL[…] AND A COMPOUND WITH 5-HT6 RECEPTOR AFFINITY” (priority 2006, published 2010).
Some entries share one result that the patent states for a list of compounds. Some compounds share one range, which may span the group rather than tell each member.

Details: carbamoylating agents; cited from earlier work

SMILES	half-life
CN(C)C(=O)Oc1cccc([N+](C)(C)C)c1 [neostigmine]	1 to 2 h
CNC(=O)Oc1ccc2c(c1)[C@]1(C)CCN(C)[C@@H]1N2C [physostigmine]	1 to 2 h
CN(C)C(=O)Oc1ccc[n+](C)c1 [pyridostigmine]	1 to 2 h
